# Reference: the supplement of paper PMC8728848
# This is one part of the list.
# B1: Awp3 (Candida glabrata), B4UN32 (protein)
# chain: MISFVTLLAILGLLSISWADQTVRSVAGDQRVTDPVIVGDNSILDYYGGSNYDFSNNFEIGRGTLYIGKESYFSSFQSAPTDVPNSFHLLIKNTNNLQNNGQFIIENIKRHANQCSNSSIQVFPINFQNDGEFEIISGGVEGRCCLPTSVIAPQNFLNNGKFYYKVLTDTGSIYSGSCMQNVDIGASTTTTVNNNLWEFTGSINAQINGAVSGAAQINLDGSNMFVNANTFSGQVVNLINGGSFLQTSDPLSNIVVINGLGTSDTGVTSIAVKGKGKSFTYNPSSGIVKLTTVEGKTYAYQIGCGYNTKKFITNNDSGASYESADNFFVLTYSEPYSPQTCQLENSSIFSSNFISTSTSSSSSSSSASSLPSSMSSSLPSSLSSSLSSSLSSSMSSSMSSLFIIPPPYTTTRSSGSSIIDTEIVSFYSTTDSPGHTITGTTTTTLYGPHTHSSVSTPSSSSESSTTSNSSIESSSLPHTSVSSTPESSITPSSNTISSSPTSDFSSVQSSSIMESSSVVASSSVINSSSIVDSSSSSASSLPSSMSSSLSSSMSSSLPSSMSSSLSSSLSSSLSSSMSSSMSSLFIIPPPYTTTRSSGSSIIDTEIVSFYSTTDSPGHTITGTTTTTLYGPHTHSSVSTPSSSSESSTTSNSSIESSSLPHTSVSSTPESSITPSSNTISSSPTSDFSSVQSSSIMESSSVVASSSVINSSSIVDSSSSSASSLPSSMPSSLPSSMSSSLSSSMSSSLSSSLSSSLSSSMSSSMSSLFIIPPPYTTTRSSGSSIIDTEIVSFYSTTDSPGHTITGTTTTTLYGPHTHSSVSTPSSSSESSTTSNSSIESSSLPHTSVSSTPESSITPSSNTISSSPTSDFSSVQSSSIMESSSVVASSSATQSSSVINSSSIVDSSSSSASSLPSSMPSSLPSSLSSSLSSSLSSSMSSSMSSLFIIPPPYTTTRSSGSSIIDTEIVSFYSTTDSPGHTITGTTTTTLYESSIYSSSSSTIQESELSNTSRTTMTSNSSVSISSTSSRSSFSNTKSSTIVISQSASLPDSKTDIILSTSSNIGYSSRSLLSDLGTSISDSDIHHSVLHSTESYSSNESGTNPFTSIASLSNFIPESSSHTSTALGSENSVISSDILTTMSHPVATNSGDKPTTPKRSEQVSTTMTSSGPTPDTSSFDTDGMSAYSRPEFTTNSLEVNKSSTSQLGNNKQTFSNLQLESTRPHSENEVDNNTRLLQSIQQSSTYGTNNVNPLSPTGSISIPLTEDGQGDNNNWNSPATNDLCTQISFNLTATTITVTDRITITDSIHDISSEVITSYIYQTIVDQKTVTQTVDGKSLANKMSSIPKPSSRSLIQPQPPVAIELQEGAASTSRVSLVSLFISIILVLL
# How the values were obtained:
# Experiment in all cases: glycan array binding signal (z-score within array); higher = stronger binding
# Conditions in all cases: glycan notation: IUPAC condensed, linker removed
# Gal6S(b1-4)Glc6S = target: Gal6S(b1-4)Glc6S
# How it was run: (§1)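 The Consortium for Functional Glycomics database supplied 3228 glycan arrays, of which those lacking an available protein sequence were dropped. The binding signal, a within-array Z-score, was averaged across arrays of the same protein sequence and across linkers. Negative scores can be read as non-binding.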
# Gal6S(b1-4)GlcNAc = target: Gal6S(b1-4)GlcNAc
# How it was run: as §1
# Gal6S(b1-4)GlcNAc6S = target: Gal6S(b1-4)GlcNAc6S
# How it was run: as §1
# GalNAc(a1-3)Gal = target: GalNAc(a1-3)Gal
# How it was run: as §1
# GalNAc(a1-3)GalNAc = target: GalNAc(a1-3)GalNAc
# How it was run: as §1
# [1] = target: GalNAc(a1-3)GalNAc(b1-3)Gal(a1-4)Gal(b1-4)Glc
# How it was run: as §1
# [2] = target: GalNAc(a1-3)GalNAc(b1-3)Gal(a1-4)Gal(b1-4)GlcNAc
# How it was run: as §1
# GalNAc(b1-3)Gal = target: GalNAc(b1-3)Gal
# How it was run: as §1
# [3] = target: GalNAc(b1-3)Gal(a1-4)Gal(b1-4)GlcNAc
# How it was run: as §1
# [4] = target: GalNAc(b1-3)Gal(a1-4)Gal(b1-4)GlcNAc(b1-3)Gal(b1-4)Glc
# How it was run: as §1
# [5] = target: GalNAc(b1-3)Gal(a1-6)Gal(b1-4)Glc
# How it was run: as §1
# GalNAc(b1-3)GalNAc = target: GalNAc(b1-3)GalNAc
# How it was run: as §1
# GalNAc(b1-3)GlcNAc = target: GalNAc(b1-3)GlcNAc
# How it was run: as §1
# GalNAc(b1-4)Gal(b1-4)Glc = target: GalNAc(b1-4)Gal(b1-4)Glc
# How it was run: as §1
# GalNAc(b1-4)GlcNAc = target: GalNAc(b1-4)GlcNAc
# How it was run: as §1
# [6] = target: GalNAc(b1-4)GlcNAc(b1-2)Man
# How it was run: as §1
# [7] = target: GalNAc(b1-4)GlcNAc(b1-2)Man(a1-3)[GalNAc(b1-4)GlcNAc(b1-2)Man(a1-6)]Man(b1-4)GlcNAc(b1-4)GlcNAc
# How it was run: as §1
# [8] = target: GalNAc(b1-4)GlcNAc(b1-3)GalNAc(b1-4)GlcNAc
# How it was run: as §1
# GalNAc(b1-4)GlcNAc6S = target: GalNAc(b1-4)GlcNAc6S
# How it was run: as §1
# GalNAc(b1-6)GalNAc = target: GalNAc(b1-6)GalNAc
# How it was run: as §1
# GalNAc3S(b1-4)GlcNAc = target: GalNAc3S(b1-4)GlcNAc
# How it was run: as §1
# GalNAc3S(b1-4)GlcNAc3S = target: GalNAc3S(b1-4)GlcNAc3S
# How it was run: as §1
# [9] = target: GalNAc3S(b1-4)[Fuc(a1-3)]GlcNAc
# How it was run: as §1
# GalNAc4S6S(b1-4)GlcNAc = target: GalNAc4S6S(b1-4)GlcNAc
# How it was run: as §1
# GalNAc6S(b1-4)GlcNAc = target: GalNAc6S(b1-4)GlcNAc
# How it was run: as §1
# Glc(a1-4)Glc = target: Glc(a1-4)Glc
# How it was run: as §1
# [10] = target: Glc(a1-4)Glc(a1-4)Glc(a1-4)Glc
# How it was run: as §1
# Glc(a1-6)Glc(a1-6)Glc = target: Glc(a1-6)Glc(a1-6)Glc
# How it was run: as §1
# [11] = target: Glc(a1-6)Glc(a1-6)Glc(a1-6)Glc
# How it was run: as §1
# Glc(b1-4)Glc = target: Glc(b1-4)Glc
# How it was run: as §1
# Glc(b1-6)Glc = target: Glc(b1-6)Glc
# How it was run: as §1
# GlcA(b1-3)Gal = target: GlcA(b1-3)Gal
# How it was run: as §1
# GlcA(b1-3)GlcNAc = target: GlcA(b1-3)GlcNAc
# How it was run: as §1
# GlcA(b1-6)Gal = target: GlcA(b1-6)Gal
# How it was run: as §1
# [12] = target: GlcA3S(b1-3)Gal(b1-4)GlcNAc(b1-2)Man
# How it was run: as §1
# [13] = target: GlcA3S(b1-3)Gal(b1-4)GlcNAc(b1-3)Gal(b1-4)Glc
# How it was run: as §1
# [14] = target: GlcNAc(a1-3)Gal(b1-4)GlcNAc
# How it was run: as §1
# [15] = target: GlcNAc(a1-4)Gal(b1-3)GlcNAc
# How it was run: as §1
# [16] = target: GlcNAc(a1-4)Gal(b1-4)GalNAc
# How it was run: as §1
# [17] = target: GlcNAc(a1-4)Gal(b1-4)GlcNAc
# How it was run: as §1
# [18] = target: GlcNAc(a1-4)Gal(b1-4)GlcNAc(b1-3)Gal(b1-4)Glc
# How it was run: as §1
# [19] = target: GlcNAc(a1-4)Gal(b1-4)GlcNAc(b1-3)Gal(b1-4)GlcNAc
# How it was run: as §1
# [20] = target: GlcNAc(a1-4)Gal(b1-4)GlcNAc(b1-3)Gal(b1-4)GlcNAc(b1-3)Gal(b1-4)GlcNAc
# How it was run: as §1
# [21] = target: GlcNAc(a1-4)Gal(b1-4)GlcNAc(b1-3)Gal(b1-4)[Fuc(a1-3)]GlcNAc(b1-3)Gal(b1-4)[Fuc(a1-3)]GlcNAc
# How it was run: as §1
# [22] = target: GlcNAc(a1-6)Gal(b1-4)GlcNAc
# How it was run: as §1
binder,measurement,setting,value
B1,glycan array binding signal (z-score),Gal6S(b1-4)Glc6S,-0.858
same,glycan array binding signal (z-score),Gal6S(b1-4)GlcNAc,-0.916
same,glycan array binding signal (z-score),Gal6S(b1-4)GlcNAc6S,0.823
same,glycan array binding signal (z-score),GalNAc(a1-3)Gal,-1.64
same,glycan array binding signal (z-score),GalNAc(a1-3)GalNAc,1.65
same,glycan array binding signal (z-score),[1],0.575
same,glycan array binding signal (z-score),[2],-0.69
same,glycan array binding signal (z-score),GalNAc(b1-3)Gal,-1.03
same,glycan array binding signal (z-score),[3],0.048
same,glycan array binding signal (z-score),[4],0.371
same,glycan array binding signal (z-score),[5],-0.02
same,glycan array binding signal (z-score),GalNAc(b1-3)GalNAc,-0.016
same,glycan array binding signal (z-score),GalNAc(b1-3)GlcNAc,0.71
same,glycan array binding signal (z-score),GalNAc(b1-4)Gal(b1-4)Glc,-0.258
same,glycan array binding signal (z-score),GalNAc(b1-4)GlcNAc,0.598
same,glycan array binding signal (z-score),[6],-0.52
same,glycan array binding signal (z-score),[7],-0.86
same,glycan array binding signal (z-score),[8],0.204
same,glycan array binding signal (z-score),GalNAc(b1-4)GlcNAc6S,1.93
same,glycan array binding signal (z-score),GalNAc(b1-6)GalNAc,0.141
same,glycan array binding signal (z-score),GalNAc3S(b1-4)GlcNAc,3.17
same,glycan array binding signal (z-score),GalNAc3S(b1-4)GlcNAc3S,-0.246
same,glycan array binding signal (z-score),[9],-0.523
same,glycan array binding signal (z-score),GalNAc4S6S(b1-4)GlcNAc,1.26
same,glycan array binding signal (z-score),GalNAc6S(b1-4)GlcNAc,-0.649
same,glycan array binding signal (z-score),Glc(a1-4)Glc,-0.148
same,glycan array binding signal (z-score),[10],1.35
same,glycan array binding signal (z-score),Glc(a1-6)Glc(a1-6)Glc,-0.29
same,glycan array binding signal (z-score),[11],-0.202
same,glycan array binding signal (z-score),Glc(b1-4)Glc,0.358
same,glycan array binding signal (z-score),Glc(b1-6)Glc,-1.17
same,glycan array binding signal (z-score),GlcA(b1-3)Gal,0.694
same,glycan array binding signal (z-score),GlcA(b1-3)GlcNAc,0.147
same,glycan array binding signal (z-score),GlcA(b1-6)Gal,-0.166
same,glycan array binding signal (z-score),[12],0.092
same,glycan array binding signal (z-score),[13],1.22
same,glycan array binding signal (z-score),[14],-1.5
same,glycan array binding signal (z-score),[15],-1.28
same,glycan array binding signal (z-score),[16],-0.677
same,glycan array binding signal (z-score),[17],0.255
same,glycan array binding signal (z-score),[18],-0.466
same,glycan array binding signal (z-score),[19],-0.221
same,glycan array binding signal (z-score),[20],-0.678
same,glycan array binding signal (z-score),[21],-0.632
same,glycan array binding signal (z-score),[22],-0.59

# Shown as tab-separated lines: part of the list above.
binder	measurement	setting	value
B1	glycan array binding signal (z-score)	Gal6S(b1-4)GlcNAc	-0.916
same	glycan array binding signal (z-score)	[1]	0.575
same	glycan array binding signal (z-score)	[2]	-0.69
same	glycan array binding signal (z-score)	GalNAc(b1-3)GlcNAc	0.71
same	glycan array binding signal (z-score)	[8]	0.204
same	glycan array binding signal (z-score)	[10]	1.35
same	glycan array binding signal (z-score)	Glc(a1-6)Glc(a1-6)Glc	-0.29
same	glycan array binding signal (z-score)	GlcA(b1-3)GlcNAc	0.147
same	glycan array binding signal (z-score)	[14]	-1.5
same	glycan array binding signal (z-score)	[16]	-0.677
same	glycan array binding signal (z-score)	[18]	-0.466
same	glycan array binding signal (z-score)	[21]	-0.632
